According to the supplement of paper PMC11659162:
This is one part of the list. This is a noisy data set.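 The cells are a human neuroglioma line carrying a green fluorescent autophagy reporter.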

What was measured:
H4 GFP-LC3 [1] = assay: cell viability (scaled to control) (fraction of control); higher = more viable cells
H4 GFP-LC3 [2] = assay: ACBP immunofluorescence intensity (scaled to control) (AU (scaled)); higher = more intracellular ACBP/DBI

Compound	cell viability (H4 GFP-LC3 [1]; 6 h)	cell viability (H4 GFP-LC3 [1]; 24 h)	ACBP immunofluorescence intensity (H4 GFP-LC3 [2]; 6 h)	ACBP immunofluorescence intensity (H4 GFP-LC3 [2]; 24 h)
CCC(=O)N1CCN(c2ccc(-n3c(=O)ccc4cnc5ccc(-c6cnc7ccccc7c6)cc5c43)cc2C(F)(F)F)CC1 (0.3 µM)	1.03	0.789	0.437	0.269
N[C@H]1CCN(O)C1=O (5 µM)	1.19	1.24	0.879	0.752
CC(C)(C)NCC(O)COc1cccc2[nH]c(=O)[nH]c12 (centres undefined) (5 µM)	0.592	1.02	0.691	0.444
O=c1[nH]c2cc(Cl)ccc2c(O)c1-c1cccc(Oc2ccccc2)c1 (5 µM)	1.07	1.12	0.662	0.766
C[C@H](NC[C@H](O)CP(=O)(O)Cc1ccccc1)c1ccc(Cl)c(Cl)c1 (5 µM)	0.75	0.885	0.983	0.508
C[C@@](N)(C(=O)O)c1ccc(C(=O)O)cc1 (5 µM)	1.03	1.32	0.8	0.437
Cn1c(=O)c2[nH]c(-c3ccc(S(=O)(=O)O)cc3)nc2n(C)c1=O (5 µM)	1.04	1.05	0.899	0.61
O=C(O)COc1ccc(OCCNC[C@H](O)COc2ccccc2)cc1 (5 µM)	0.731	0.801	0.943	0.882
CN1CCN2c3ccccc3Cc3ccccc3C2C1 (centres undefined) (5 µM)	0.822	1.03	0.954	0.635
CC[C@H](C)[C@H](NC(=O)[C@@H](NC(=O)[C@H](CCC(=O)O)NC(=O)[C@H](CCSC)NC(=O)[C@H](CC(C)C)NC(=O)[C@H](CCCCN)NC(=O)[C@H](CCCNC(=N)N)NC(=O)[C@H](CC(N)=O)NC(=O)[C@H](CO)NC(=O)[C@H](Cc1c[nH]cn1)NC(=O)[C@H](C)NC(=O)[C@H](CCC(N)=O)NC(=O)[C@H](CCC(N)=O)NC(=O)[C@H](C)NC(=O)[C@H](CC(C)C)NC(=O)[C@H](CCC(N)=O)NC(=O)[C@H](CCC(=O)O)NC(=O)[C@H](C)NC(=O)[C@H](CCCNC(=N)N)NC(=O)[C@H](C)NC(=O)[C@H](CCSC)NC(=O)[C@H](CCC(=O)O)NC(=O)[C@H](CC(C)C)NC(=O)[C@@H](NC(=O)[C@H](CCC(=O)O)NC(=O)[C@H](CCCNC(=N)N)NC(=O)[C@H](CC(C)C)NC(=O)[C@H](CC(C)C)NC(=O)[C@H](Cc1c[nH]cn1)NC(=O)[C@H](Cc1ccccc1)NC(=O)[C@@H](NC(=O)[C@H](CC(C)C)NC(=O)[C@H](CC(=O)O)NC(=O)[C@H](CC(C)C)NC(=O)[C@H](CO)NC(=O)[C@@H](NC(=O)[C@@H]1CCCN1C(=O)[C@@H]1CCCN1C(=O)[C@H](CCC(=O)O)NC(=O)[C@H](CCC(=O)O)NC(=O)[C@@H](N)CO)[C@@H](C)CC)[C@@H](C)O)C(C)C)[C@@H](C)CC)C(N)=O (5 µM)	1.11	0.95	0.96	0.803
CN1[C@@H]2CC[C@H]1C[C@@H](OC(=O)c1c[nH]c3ccccc13)C2 (5 µM)	0.792	1.09	0.995	0.559
NC(CO)C(=O)O (racemic) (5 µM)	1.14	0.691	0.74	0.627
Cc1nccn1CC1CCc2c(c3ccccc3n2C)C1=O (centres undefined) (5 µM)	0.872	1.04	0.678	0.421
O=C(O)c1cc(O)c2ccc(Cl)cc2n1 (5 µM)	1.07	1.34	0.778	0.381
O=C1CC2(CCCC2)CC(=O)N1CCCCN1CCN(c2ncccn2)CC1 (5 µM)	0.928	0.986	0.961	0.792
CN1CCC(=C2c3ccccc3CCc3sccc32)CC1 (5 µM)	0.868	1.01	0.903	0.565
Clc1ccc2c(c1)C(N1CCNCC1)=Nc1ccccc1O2 (5 µM)	0.435	0.958	0.918	0.302
NCC(=O)O (5 µM)	1.16	1.06	0.729	0.575
CCN(Cc1ccncc1)C(=O)C(CO)c1ccccc1 (centres undefined) (5 µM)	0.917	1.24	0.992	0.849
CC(C)NCC(O)COc1cccc2ccccc12 (centres undefined) (5 µM)	0.8	0.972	0.942	0.269
C[C@H](N)C(=O)NCC(=O)N[C@H]1CSSC[C@@H](C(=O)O)NC(=O)[C@H](CO)NC(=O)[C@H]([C@@H](C)O)NC(=O)[C@H](Cc2ccccc2)NC(=O)[C@H]([C@@H](C)O)NC(=O)[C@H](CCCCN)NC(=O)[C@H](Cc2c[nH]c3ccccc23)NC(=O)[C@H](Cc2ccccc2)NC(=O)[C@H](Cc2ccccc2)NC(=O)[C@H](CC(N)=O)NC(=O)[C@H](CCCCN)NC1=O (5 µM)	1.09	1.03	0.893	0.761
O=C(c1ccc(F)cc1)C1CCN(CCn2c(=O)[nH]c3ccccc3c2=O)CC1 (5 µM)	0.818	1.01	0.992	0.869
Cn1cc(C(F)(F)F)nc1-c1ccc(OCC(O)CNCCOc2ccc(O)c(C(N)=O)c2)cc1 (centres undefined) (5 µM)	0.713	0.849	0.905	0.786

A stretch from the list above:
Compound	cell viability (H4 GFP-LC3 [1]; 6 h)	cell viability (H4 GFP-LC3 [1]; 24 h)	ACBP immunofluorescence intensity (H4 GFP-LC3 [2]; 6 h)	ACBP immunofluorescence intensity (H4 GFP-LC3 [2]; 24 h)
O=C(O)COc1ccc(OCCNC[C@H](O)COc2ccccc2)cc1 (5 µM)	0.731	0.801	0.943	0.882
CN1CCN2c3ccccc3Cc3ccccc3C2C1 (centres undefined) (5 µM)	0.822	1.03	0.954	0.635
CC[C@H](C)[C@H](NC(=O)[C@@H](NC(=O)[C@H](CCC(=O)O)NC(=O)[C@H](CCSC)NC(=O)[C@H](CC(C)C)NC(=O)[C@H](CCCCN)NC(=O)[C@H](CCCNC(=N)N)NC(=O)[C@H](CC(N)=O)NC(=O)[C@H](CO)NC(=O)[C@H](Cc1c[nH]cn1)NC(=O)[C@H](C)NC(=O)[C@H](CCC(N)=O)NC(=O)[C@H](CCC(N)=O)NC(=O)[C@H](C)NC(=O)[C@H](CC(C)C)NC(=O)[C@H](CCC(N)=O)NC(=O)[C@H](CCC(=O)O)NC(=O)[C@H](C)NC(=O)[C@H](CCCNC(=N)N)NC(=O)[C@H](C)NC(=O)[C@H](CCSC)NC(=O)[C@H](CCC(=O)O)NC(=O)[C@H](CC(C)C)NC(=O)[C@@H](NC(=O)[C@H](CCC(=O)O)NC(=O)[C@H](CCCNC(=N)N)NC(=O)[C@H](CC(C)C)NC(=O)[C@H](CC(C)C)NC(=O)[C@H](Cc1c[nH]cn1)NC(=O)[C@H](Cc1ccccc1)NC(=O)[C@@H](NC(=O)[C@H](CC(C)C)NC(=O)[C@H](CC(=O)O)NC(=O)[C@H](CC(C)C)NC(=O)[C@H](CO)NC(=O)[C@@H](NC(=O)[C@@H]1CCCN1C(=O)[C@@H]1CCCN1C(=O)[C@H](CCC(=O)O)NC(=O)[C@H](CCC(=O)O)NC(=O)[C@@H](N)CO)[C@@H](C)CC)[C@@H](C)O)C(C)C)[C@@H](C)CC)C(N)=O (5 µM)	1.11	0.95	0.96	0.803
CN1[C@@H]2CC[C@H]1C[C@@H](OC(=O)c1c[nH]c3ccccc13)C2 (5 µM)	0.792	1.09	0.995	0.559
NC(CO)C(=O)O (racemic) (5 µM)	1.14	0.691	0.74	0.627
Cc1nccn1CC1CCc2c(c3ccccc3n2C)C1=O (centres undefined) (5 µM)	0.872	1.04	0.678	0.421
O=C(O)c1cc(O)c2ccc(Cl)cc2n1 (5 µM)	1.07	1.34	0.778	0.381
O=C1CC2(CCCC2)CC(=O)N1CCCCN1CCN(c2ncccn2)CC1 (5 µM)	0.928	0.986	0.961	0.792
CN1CCC(=C2c3ccccc3CCc3sccc32)CC1 (5 µM)	0.868	1.01	0.903	0.565
Clc1ccc2c(c1)C(N1CCNCC1)=Nc1ccccc1O2 (5 µM)	0.435	0.958	0.918	0.302
NCC(=O)O (5 µM)	1.16	1.06	0.729	0.575
CCN(Cc1ccncc1)C(=O)C(CO)c1ccccc1 (centres undefined) (5 µM)	0.917	1.24	0.992	0.849

More records.

Compound	cell viability (H4 GFP-LC3 [1]; 6 h)	cell viability (H4 GFP-LC3 [1]; 24 h)	ACBP immunofluorescence intensity (H4 GFP-LC3 [2]; 6 h)	ACBP immunofluorescence intensity (H4 GFP-LC3 [2]; 24 h)
Cc1cccc(C(=O)NCN2CCN(c3ccccc3C#N)CC2)c1 (5 µM)	0.837	1.36	0.99	0.864
COc1ccccc1N1CCN(CCN2C(=O)CC3(CCCC3)CC2=O)CC1 (5 µM)	0.816	0.87	0.946	0.558
CC(C)NCC(O)c1ccc(O)c(O)c1 (racemic) (5 µM)	0.816	0.971	0.888	0.562
CC[N+](CC)(CCNC(=O)C(=O)NCC[N+](CC)(CC)Cc1ccccc1Cl)Cc1ccccc1Cl (5 µM)	0.988	1.07	0.92	0.641
CN1CCN(C2=Nc3ccccc3Sc3ccc(Cl)cc32)CC1 (5 µM)	0.757	0.936	0.838	0.48
Cc1scc2c1N(C(=O)CN1CCN(C)CC1)c1ccccc1NC2=O (5 µM)	0.853	1.06	0.999	0.863
O=C(NCCCN1CCCCCC1)C(c1ccccc1)C1CCCCC1 (centres undefined) (5 µM)	0.842	1.32	1	0.861
COC(=O)[C@H]1[C@H]2C[C@H]3c4[nH]c5ccccc5c4CCN3C[C@H]2CC[C@@H]1O (5 µM)	0.719	0.79	0.728	0.401
CN1CCc2cccc3c2[C@H]1Cc1ccc(O)c(O)c1-3 (5 µM)	0.927	1.12	0.722	0.51
CN1CCN2c3ncccc3Cc3ccccc3C2C1 (centres undefined) (5 µM)	0.854	0.755	0.855	0.546
CN(C)CCCN1c2ccccc2CCc2ccccc21 (5 µM)	0.594	0.872	0.888	0.236
Nc1ncnc2c1c(I)cn2[C@@H]1O[C@H](CO)[C@@H](O)[C@H]1O (5 µM)	0.971	0.749	0.996	0.543
CSCCC(NC(=O)C(CC(C)C)NC(=O)C(Cc1c[nH]cn1)NC(=O)CNC(=O)C(NC(=O)C(C)NC(=O)C(Cc1c[nH]c2ccccc12)NC(=O)C(Cc1c[nH]cn1)NC(=O)C(CC(N)=O)NC(=O)CNC(=O)C(CCCNC(=N)N)NC(=O)C1CCCN1C(=O)C(Cc1ccc(O)cc1)NC(=O)C(CCSC)NC(=O)C(CCCCN)NC(=O)C(NC(=O)C(CC(C)C)NC(=O)C(NC(=O)C(NC(=O)CNC(=O)CNC(=O)CNC(=O)C(C)NC(=O)C1CCCN1C(=O)C(CC(C)C)NC(=O)C1CCCN1C(=O)C(N)C(C)C)C(C)O)C(C)C)C(C)O)C(C)C)C(N)=O (centres undefined) (5 µM)	1.12	1.11	0.942	0.788
O=C(O)C1=CCNCC1 (5 µM)	0.874	0.995	0.996	0.94
CC(C(O)c1ccc(O)cc1)N1CCC(Cc2ccccc2)CC1 (centres undefined) (5 µM)	0.642	0.826	0.941	0.844
N[C@@H](CCC(=O)O)C(=O)[O-].[Na+] (5 µM)	1.13	0.997	0.493	0.818
Cc1nc(N=Nc2cc(S(=O)(=O)O)c3cc([N+](=O)[O-])cc(S(=O)(=O)O)c3c2)c(COP(=O)(O)O)c(C=O)c1O (5 µM)	1.07	1.01	0.996	0.701
CCC(C)N(C)C(=O)c1cc2ccccc2c(-c2ccccc2Cl)n1 (centres undefined) (5 µM)	0.871	1.24	0.969	0.658
Cc1ccc(N(CC2=NCCN2)c2cccc(O)c2)cc1 (5 µM)	0.85	0.988	0.864	0.581
N[C@@H](CCC(=O)O)C(=O)O (5 µM)	1.07	1.16	0.687	0.585
COc1cccc2c1C(=O)c1c(O)c3c(c(O)c1C2=O)C[C@@](O)(C(=O)CO)C[C@@H]3O[C@H]1C[C@H](N)[C@H](O)[C@H](C)O1 (5 µM)	0.723	1.33	0.995	0.66
N[C@H](C(=O)O)c1ccc(C(=O)O)cc1 (5 µM)	1.11	1.48	0.956	0.552
CC(=O)[C@H]1CC[C@H]2[C@@H]3CCC4=CC(=O)CC[C@]4(C)[C@H]3CC[C@]12C (5 µM)	1.06	1.15	0.55	0.876
